Values from PubChem BioAssay AID1259405 (NCATS, 2018).
In all, the deposit lists about 50,000 reagents; shown is an unselected part. Of all reagents, about 4,000 (8%) were called active. 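Mouse siRNA library applied to hamster cells; one well for each siRNA.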 A number with no mark means an inactive call. Reagents against one gene are numbered here.

Aim: 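Knock-downs that lift recombinant protein yield in hamster ovary cells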 (primary screen)
Cells: Chinese hamster CHO-K1 ovary cells with stable secreted eGFP expression
Reagents: single siRNA against mouse genes, 0.8 pmol siRNA per well (2 µl of 400 nM stock)
Timing: 3 days
Measurement: 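Percent of the per-plate non-targeting control median for intracellular GFP per well by laser scanning cytometry and for cell viability by ATP luminescence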
Reading the numbers: GFP, % of control: higher = more GFP per well, higher productivity; viability (ATP), % of control: higher = more viable cells (more ATP)
Call rule: 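a knock-down is called active if GFP reaches 120% or more of non-targeting control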

gene	reagent no.	GFP, % of control	viability (ATP), % of control
Necab3 (N-terminal EF-hand calcium binding protein 3)	1	114	49
Necab3 (N-terminal EF-hand calcium binding protein 3)	2	58	71.5
Necab3 (N-terminal EF-hand calcium binding protein 3)	3	51.1	33.6
Zfp175 (zinc finger protein 175)	1	74.3	56.7
Zfp175 (zinc finger protein 175)	2	87.3	63.9
Zfp175 (zinc finger protein 175)	3	75.6	60.3
Lmtk3 (lemur tyrosine kinase 3)	1	111	103
Or5an1c (olfactory receptor family 5 subfamily AN member 1C)	1	105	58.5
Or5an1c (olfactory receptor family 5 subfamily AN member 1C)	2	82.4	90
Or5an1c (olfactory receptor family 5 subfamily AN member 1C)	3	28.7	31.4
Chm (CHM Rab escort protein)	1	94.5	88.2
Chm (CHM Rab escort protein)	2	151 (active)	114
Chm (CHM Rab escort protein)	3	94.3	89.9
Ints14 (integrator complex subunit 14)	1	103	71.5
Ints14 (integrator complex subunit 14)	2	161 (active)	74.7
Ints14 (integrator complex subunit 14)	3	69.9	82.7
Nedd1	1	80	87.6
Nedd1	2	75.7	85.3
Nedd1	3	78	66.9
Bicd1 (BICD cargo adaptor 1)	1	52.1	51.1
Bicd1 (BICD cargo adaptor 1)	2	90.8	101
Bicd1 (BICD cargo adaptor 1)	3	94.9	93.2
Or8w1 (olfactory receptor family 8 subfamily U member 1)	1	134 (active)	109
Or8w1 (olfactory receptor family 8 subfamily U member 1)	2	64.1	65.9
Or8w1 (olfactory receptor family 8 subfamily U member 1)	3	44	16.2
Maged2 (MAGE family member D2)	1	84.5	73.5
Maged2 (MAGE family member D2)	2	125 (active)	41.2
Maged2 (MAGE family member D2)	3	124 (active)	120
Hps5 (HPS5, biogenesis of lysosomal organelles complex 2 subunit 2)	1	65.9	61.8
Hps5 (HPS5, biogenesis of lysosomal organelles complex 2 subunit 2)	2	50.6	41.8
Hps5 (HPS5, biogenesis of lysosomal organelles complex 2 subunit 2)	3	97.4	112
Rtl3 (retrotransposon Gag like 3)	1	130 (active)	96.5
Rtl3 (retrotransposon Gag like 3)	2	50	44.3
Rtl3 (retrotransposon Gag like 3)	3	86.5	83.5
Hat1 (histone aminotransferase 1)	1	49.3	52.3
Hat1 (histone aminotransferase 1)	2	99.5	85.2
Hat1 (histone aminotransferase 1)	3	60.9	43.7
Slc3a1	1	95.6	88.1
Slc3a1	2	76.4	72.6
Slc3a1	3	72.3	69
Nagpa	1	47.5	37.1
Nagpa	2	64.8	79.9
Nagpa	3	56.6	73.3
Odf2l (outer dense fiber of sperm tails 2-like)	1	67.1	84.9
Odf2l (outer dense fiber of sperm tails 2-like)	2	71.7	74.5
Odf2l (outer dense fiber of sperm tails 2-like)	3	176 (active)	30.4
Or8g23 (olfactory receptor family 8 subfamily G member 23)	1	99.9	73.2
Or8g23 (olfactory receptor family 8 subfamily G member 23)	2	39.4	51.1
Or8g23 (olfactory receptor family 8 subfamily G member 23)	3	74.6	78
Nalf1 (NALCN channel auxiliary factor 1)	1	95.8	87.3
Nalf1 (NALCN channel auxiliary factor 1)	2	82.7	76.3
Nalf1 (NALCN channel auxiliary factor 1)	3	67.6	72.2
Stx2 (syntaxin 2)	1	59.1	46.4
Stx2 (syntaxin 2)	2	69.9	66.6
Stx2 (syntaxin 2)	3	64.2	61.1
Dnajc18 (DnaJ heat shock protein family (Hsp40) member C18)	1	74.4	76.6
Dnajc18 (DnaJ heat shock protein family (Hsp40) member C18)	2	73	66.9
Dnajc18 (DnaJ heat shock protein family (Hsp40) member C18)	3	83.6	64.7
Ptpn7 (protein tyrosine phosphatase, non-receptor type 7)	1	70.1	76.9
Ptpn7 (protein tyrosine phosphatase, non-receptor type 7)	2	77.1	74.4
Ptpn7 (protein tyrosine phosphatase, non-receptor type 7)	3	73.1	87.1
Dnah2 (dynein, axonemal, heavy chain 2)	1	75.2	66.6
Dnah2 (dynein, axonemal, heavy chain 2)	2	70.2	82
Dnah2 (dynein, axonemal, heavy chain 2)	3	85.3	83
Pias2 (protein inhibitor of activated STAT 2)	1	71	79.9
Pias2 (protein inhibitor of activated STAT 2)	2	107	117
Pias2 (protein inhibitor of activated STAT 2)	3	110	101
Or1e33 (olfactory receptor family 1 subfamily E member 33)	1	68.6	72.9
Or1e33 (olfactory receptor family 1 subfamily E member 33)	2	81.8	42.9
Or1e33 (olfactory receptor family 1 subfamily E member 33)	3	69.4	94.3
Arhgap9 (Rho GTPase activating protein 9)	1	102	79
Arhgap9 (Rho GTPase activating protein 9)	2	53.5	103
Arhgap9 (Rho GTPase activating protein 9)	3	91.2	115
Pde3b (phosphodiesterase 3B, cGMP-inhibited)	1	57.3	62.2
Pde3b (phosphodiesterase 3B, cGMP-inhibited)	2	103	52.4
Pde3b (phosphodiesterase 3B, cGMP-inhibited)	3	72.7	119
Wnt9a (WNT family member 9A)	1	61.2	56
Wnt9a (WNT family member 9A)	2	112	71.1
Wnt9a (WNT family member 9A)	3	78.2	64.4
Slc18a2	1	79.6	56.6
Slc18a2	2	84.5	76.4
Slc18a2	3	113	101
Dennd2a (DENN domain containing 2A)	1	53.4	57.7
Dennd2a (DENN domain containing 2A)	2	76	82
Dennd2a (DENN domain containing 2A)	3	96.3	71.1
Trmt11 (tRNA methyltransferase 11)	1	83.5	84.1
Trmt11 (tRNA methyltransferase 11)	2	31.3	39.9
Trmt11 (tRNA methyltransferase 11)	3	65	66.5
Dpp9 (dipeptidylpeptidase 9)	1	65.4	98.6
Dpp9 (dipeptidylpeptidase 9)	2	188 (active)	66.2
Dpp9 (dipeptidylpeptidase 9)	3	77.3	76.7
Or4c103 (olfactory receptor family 4 subfamily C member 103)	1	74.4	67.3
Or4c103 (olfactory receptor family 4 subfamily C member 103)	2	88.7	65.9
Or4c103 (olfactory receptor family 4 subfamily C member 103)	3	86.5	75
Adcy7 (adenylate cyclase 7)	1	39.6	33.6
Adcy7 (adenylate cyclase 7)	2	21.7	35.7
Adcy7 (adenylate cyclase 7)	3	86.3	90.9
Or2ag12 (olfactory receptor family 2 subfamily AG member 12)	1	81.6	72.1
Or2ag12 (olfactory receptor family 2 subfamily AG member 12)	2	70.7	67.3
Or2ag12 (olfactory receptor family 2 subfamily AG member 12)	3	104	91.4
Eddm3b (epididymal protein 3B)	1	64.4	79.9
Eddm3b (epididymal protein 3B)	2	167 (active)	95.3
Eddm3b (epididymal protein 3B)	3	177 (active)	220
Vtcn1 (V-set domain containing T cell activation inhibitor 1)	1	59.4	54.5
Vtcn1 (V-set domain containing T cell activation inhibitor 1)	2	116	95.9
Vtcn1 (V-set domain containing T cell activation inhibitor 1)	3	88.9	121
Dpysl4 (dihydropyrimidinase-like 4)	1	109	97.7
Dpysl4 (dihydropyrimidinase-like 4)	2	101	124
Dpysl4 (dihydropyrimidinase-like 4)	3	39	51.3

Individual results from the list.
Under “viability (ATP), % of control”, Dpp9 (dipeptidylpeptidase 9) #1 has 98.6
Value of Dennd2a (DENN domain containing 2A) #1 under “GFP, % of control”: 53.4
Value of Or8g23 (olfactory receptor family 8 subfamily G member 23) #1 in “viability (ATP), % of control”: 73.2
For “viability (ATP), % of control”, Or8g23 (olfactory receptor family 8 subfamily G member 23) #2 reads 51.1
Chm (CHM Rab escort protein) #1, GFP, % of control: 94.5
Arhgap9 (Rho GTPase activating protein 9) #3, GFP, % of control: 91.2
